We go through 79 compounds from PubChem BioAssay AID2003 (Broad Institute, 2009).

The structures appear in SMILES notation. Some of the results follow. Potency and affinity values are given separately. Entries without a call are filed as inconclusive in the source.

A short description of the test: PubChem AID 2003. The conditions noted are these: H4 cells, SNCA 5'UTR luciferase reporter, luminescence; at 12 µM (top of the series) unless noted.
Turning to `c1ccc(C2=NNC(c3ccccn3)=NN2)nc1`, the activation was -51.3%.

In the case of `Nc1nc(-c2sc3nc4c(cc3c2N)CCCC4)nc(N2CCOCC2)n1`, the activation was 46.9%.

For the compound `O=C(/C=C/c1c(F)cccc1Cl)Nc1nc2ccccc2[nH]1`, the activation is 89.9%.

As to `Cc1nn(-c2nc3ccccc3s2)c(N)c1-c1ccccc1`, the activation amounted to 110%.

For the compound `Cc1ccc(C)c(N=Nc2nc3ccccc3n2C)c1`, the activation worked out at 2.5%.

Turning to `Cc1ccc(/C=c2/sc3n(c2=O)CCCN=3)o1`, the activation is 27.9%.

With `CCOc1c2ccc(C(=O)NCCc3cccs3)cc2nn1CC`, the activation is 43.7%.

Take `CCOc1ccc(C2=Nc3ccccc3C(c3ccc(N4CCOCC4)cc3)=NN2)cc1`: the activation amounted to 48.1%.

As to `Cc1c(-c2nc(N)nc(Nc3ccccc3F)n2)oc2ccccc12`, the activation stood at 29.2%.

Take `c1ccc(CSc2ccc(-c3ccc4c(c3)OCO4)nn2)cc1`: the activation stood at 77.8%.

Consider `Clc1ccc2nc(-c3ccc(Cl)nc3)[nH]c2c1`, for which the activation is 93.2%.

For `Cn1c(C(=O)NCCc2c[nH]c3ccccc23)cc2sccc21`, the activation was determined as 90.4%.

`COc1ccc(C(=O)n2c(N)nc3ccccc32)cc1OC`: the activation is 56.6%.

For `COC(=O)c1ccccc1NC(=O)c1cccc(COc2ccccc2Cl)c1`, the activation is -16.8%.

As for `COc1ccc(CCNC(=O)c2ccc3c(c2)OCCO3)cc1`, the activation was found to be 59%.

In the case of `Nc1nc(NC(=O)c2cccs2)nn1-c1ccccc1`, the activation was 39.1%.

On to `Cn1cc(/C=N\NC(=O)c2cccs2)c2ccccc21`, for which the activation came to 44.9%.

For `O=C(Nc1ccc(F)cc1)/C(Cl)=C/c1ccccc1`, the activation worked out at 202%.

For the compound `Cc1ccc(SSc2cc(C)ccc2N)c(N)c1`, the activation worked out at 62.7%.

For `O=C(Nc1ccc2ccccc2n1)c1ccccc1Br`, the activation was determined as 52.5%.

For `CC(=Nc1ccccc1)c1sc2ccccc2c1O`, the activation worked out at 0.5%.

Consider `Cc1sc(NC(=O)C2CCCCC2)c(C#N)c1-c1ccccc1`, for which the activation is 45.5%.

As for `O=C(Nc1ccc(Cl)c(Cl)c1)c1ccc(Cn2cc(Cl)cn2)cc1`, the activation is 75.6%.

As for `CN(C)/C=N/c1cnc(C(=O)c2ccc(Cl)cc2)n1C`, the activation is 56.1%.

Regarding `CCOc1ccc(-c2cc(C(=O)N/N=C(\C)c3cccnc3)c3ccccc3n2)cc1`, the activation was 16.1%.

In the case of `Cc1cc(/C=C2/C(=O)NN(c3ccccc3)C2=O)c(C)n1-c1ccc(O)cc1`, the activation is -4.3%.

Consider `CCCn1cnc2cc(NCc3cccs3)ccc21`, for which the activation was found to be 53.4%.

Turning to `Cc1csc(NC(=O)C2=COCCO2)n1`, the activation was 34.1%.

For the compound `O=C(Cc1nc2ccccc2[nH]c1=O)c1ccccc1`, the activation was -27.1%.

For `c1csc(CSc2nc3ccccc3s2)c1`, the activation worked out at 91.6%.

For the compound `CC1CCc2c(sc(NC(=O)c3nc4ncccn4n3)c2C#N)C1` (centres undefined), the activation turned out to be 22.6%.

Consider `COc1ccc2c(c1OC)C(=O)OC2Nc1nc(-c2ccc(-c3ccccc3)cc2)cs1` (centres undefined), for which the activation was determined as 73%.

Regarding `CCC(C)C(=O)N1CCCC(c2nc(-c3cccs3)no2)C1` (centres undefined), the activation worked out at 53.8%.

For `NC(=O)c1ccccc1N=Cc1ccc2ccccc2c1`, the activation was 13.5%.

In the case of `[O-][n+]1onc2c3ccnnc3ccc21`, the activation came out at 62.2% [at 6 µM].

For the compound `O=C(C1CC(c2ccc(F)cc2)=NO1)N1CCCCC1` (centres undefined), the activation amounted to 28.1%.

`COC(=O)CSc1nc2cc3c(cc2cc1C#N)OCO3`: the activation stood at 116%.

`CC(C)c1ccc(/C=N/NC(=O)C2CCCC2)cc1`: the activation stood at 110%.

Regarding `Nc1ccc2nc(-c3ccccn3)[nH]c2c1`, the activation worked out at 84.4%.

In the case of `CCOc1ccc(/C=C2\CCC(C3CCCC3)C2=O)cc1` (centres undefined), the activation is 69.4%.

As to `CCOC(=O)c1ccccc1NC1c2ccccc2C(=O)N1c1ccc(C)cn1` (centres undefined), the activation came out at 21.7%.

Take `O=C(Nc1nc(-c2ccccc2)ns1)c1cccs1`: the activation stood at 117%.

Regarding `CCOC(=O)Nc1ccc2nc(N3CCCCCC3)sc2c1`, the activation is -20.4%.

Turning to `COc1ccc(/C=C/C(=O)c2c(C)nc3ccccn23)cc1`, the activation worked out at 126%.

`CC(=O)Nc1ccc(O)c(-c2nc3ccccc3s2)c1`: the activation is 175%.

`COc1ccc(-n2ncc3c(N4CCc5ccccc54)ncnc32)cc1`: the activation is -17.5%.

For `Cc1ccc(OCC(=O)Nc2ccc3c(c2)OCO3)c(C)c1`, the activation was determined as 76.2%.

With `Nc1nc(Nc2ccccc2F)sc1C(=O)c1ccccc1`, the activation is -1.1%.

Consider `CCOC(=O)c1sc2nc3n(c(=O)c2c1C)CCCCC3`, for which the activation worked out at 65.4%.

On to `O=C(NN/C(=N/S(=O)(=O)c1ccc(Cl)cc1)c1ccccc1)c1cccc(Cl)c1`, for which the activation stood at 119%.

As for `Cc1no[n+]([O-])c1COc1ccccc1/C=N/n1nnnc1N`, the activation turned out to be 34.6%.

Take `Clc1ccc2nc(CSCc3ccccc3)cn2c1`: the activation amounted to 10.1%.

With `Cc1ccc(-n2c(C)cc(C(=O)COC(=O)c3ccc[nH]c3=O)c2C)cc1`, the activation was determined as 33.6%.

`O=C(COC(=O)c1cccs1)c1ccc2c(c1)OCCO2`: the activation is 47%.

`O=C(OCc1ccccc1F)c1ccc2c(c1)OCCO2`: the activation was 39.6%.

Take `CCc1ccc(NC(=O)c2ccccc2NC(=O)C2CCCO2)cc1` (centres undefined): the activation stood at 77.1%.

On to `O=C(NCCSc1ccccc1)c1ccccc1`, for which the activation was found to be 68%.

As for `CN(C)/C=N/c1ncc(C(=O)c2ccccc2)s1`, the activation amounted to 65.4%.

In the case of `c1csc(C2=NNC(=NC3CCCCC3)SC2)c1`, the activation worked out at 5.4%.

On to `Cc1nnc(SCC(=O)c2cc(C)n(C3CC3)c2C)s1`, for which the activation turned out to be 12.1%.

As to `Cc1ccc(Nc2nc(-c3ccncc3)cs2)cc1`, the activation amounted to 150%.

For the compound `Cc1ccc(-n2nc3c(n2)/C(=N/O)CC/C3=N\O)cc1`, the activation stood at 75%.

For `COc1ccc(Nc2oc(-c3ccc(F)cc3)nc2C#N)cc1`, the activation turned out to be 89.8%.

For the compound `CCn1c(=N)n(CC(=O)c2ccc(Cl)c(Cl)c2)c2ccccc21`, the activation stood at 96.4%.

Take `Cc1cc(C(=O)O/N=C(\N)c2ccc(C(C)(C)C)cc2)no1`: the activation stood at 153%.

With `O=C(NCCC1=CCCCC1)c1cnc2n(c1=O)CCS2`, the activation was found to be 53.7%.

For `Cc1ccc(-c2cc(-c3ccccc3[N+](=O)[O-])[nH]n2)c(O)c1`, the activation was found to be 99.3%.

For the compound `c1ccc(N2CCN(c3nc4cc5c(cc4s3)OCCO5)CC2)cc1`, the activation turned out to be 19.7%.

For the compound `Cc1nn(-c2ccccc2)c(/N=C/c2ccccc2O)c1-c1ccccc1`, the activation was found to be 52.8%.

For the compound `O=C(Cc1cccs1)Nc1ccc(-c2nc3ccccc3[nH]2)cc1`, the activation came out at 3.7%.

With `O=C(N/N=C/c1ccc(OCc2ccccc2)cc1)c1ccncc1`, the activation came out at 68.4%.

On to `COc1ccc(C2C(=O)c3ccccc3C2=O)c(OC)c1`, for which the activation stood at 75.6%.

With `CCOC(=O)c1nnc2cc(-c3ccc(Br)cc3)nn2c1C`, the activation came out at 41.8%.

With `CC(=O)c1c(C)[nH]c(C(=O)NCCC2=CCCCC2)c1C`, the activation is 59.9%.

Regarding `N#Cc1ccsc1NC(=O)COC(=O)c1ccc2ccccc2c1`, the activation amounted to 81.4%.

In the case of `O=C(Nc1cnc2ccccc2c1)C1COc2ccccc2O1` (centres undefined), the activation was determined as 83.9%.

Regarding `Cc1csc(NC(=O)Nc2ccccc2[N+](=O)[O-])n1`, the activation was determined as 27.2%.

Regarding `O=C(NNC1=NCCCCC1)Nc1cccc(Cl)c1`, the activation was 65.5%.

Take `COc1ccc(Oc2nnc(C)c3ccccc23)cc1`: the activation was found to be 68.5%.
